PubChem BioAssay AID504774, Drosophila RNAi Screening Center, 2011
The deposit covers about 23,000 reagents; below is an unselected part of those that have a named target and a result. 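Values are quantile-normalised luminescence on an arbitrary scale; higher means more cells surviving MMS.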 A plus sign joins genes that one reagent is predicted to hit. Not all columns of the deposit are shown.

- Assay: 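Genes required for cells to withstand methyl methanesulphonate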 (primary screen)
- System: Drosophila Kc167 cells
- Reagent: long dsRNA against Drosophila genes, about 0.25 µg dsRNA per well
- Duration: about 6 days: 3 days knock-down, then 3 days with or without MMS
- Conditions: methyl methanesulphonate 0.004% (w/v) for 3 days after knock-down
- Measurement: 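ATP-dependent luminescence as a measure of live cells in MMS-exposed wells, quantile normalised within each plate, with replicate values also given as a mean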
- Direction: mean viability with MMS and viability with MMS: higher = more surviving cells after MMS

{"predicted target": "Plap (Phospholipase A2 activator protein)", "DRSC id": "DRSC00678", "mean viability with MMS": 3.65e6, "viability with MMS, replicate 1": 4.12e6}
{"predicted target": "Tim13", "DRSC id": "DRSC09848", "mean viability with MMS": 3.73e6, "viability with MMS, replicate 1": 4.17e6}
{"predicted target": "ACC (Acetyl-CoA carboxylase)", "DRSC id": "DRSC06059", "mean viability with MMS": 3.10e6, "viability with MMS, replicate 1": 3.68e6}
{"predicted target": "ACC (Acetyl-CoA carboxylase)", "DRSC id": "DRSC07249", "mean viability with MMS": 3.48e6, "viability with MMS, replicate 1": 3.95e6}
{"predicted target": "CG14615", "DRSC id": "DRSC20627", "mean viability with MMS": 3.48e6, "viability with MMS, replicate 1": 3.99e6}
{"predicted target": "ppk31 (pickpocket 31)", "DRSC id": "DRSC13811", "mean viability with MMS": 3.64e6, "viability with MMS, replicate 1": 4.05e6}
{"predicted target": "side-II (sidestep II)", "DRSC id": "DRSC01427", "mean viability with MMS": 3.56e6, "viability with MMS, replicate 1": 4.06e6}
{"predicted target": "side-II (sidestep II)", "DRSC id": "DRSC01429", "mean viability with MMS": 3.58e6, "viability with MMS, replicate 1": 4.09e6}
{"predicted target": "side-II (sidestep II)", "DRSC id": "DRSC01913", "mean viability with MMS": 3.65e6, "viability with MMS, replicate 1": 4.06e6}
{"predicted target": "side-II (sidestep II)", "DRSC id": "DRSC01932", "mean viability with MMS": 3.82e6, "viability with MMS, replicate 1": 4.04e6}
{"predicted target": "side-II (sidestep II)", "DRSC id": "DRSC02480", "mean viability with MMS": 3.58e6, "viability with MMS, replicate 1": 3.78e6}
{"predicted target": "side-II (sidestep II)", "DRSC id": "DRSC22508", "mean viability with MMS": 3.22e6, "viability with MMS, replicate 1": 3.80e6}
{"predicted target": "MED30 (Mediator complex subunit 30)", "DRSC id": "DRSC08516", "mean viability with MMS": 3.01e6, "viability with MMS, replicate 1": 3.61e6}
{"predicted target": "MED30 (Mediator complex subunit 30)", "DRSC id": "DRSC23135", "mean viability with MMS": 2.98e6, "viability with MMS, replicate 1": 3.32e6}
{"predicted target": "Pc (Polycomb)", "DRSC id": "DRSC11873", "mean viability with MMS": 3.42e6, "viability with MMS, replicate 1": 4.03e6}
{"predicted target": "CG11159", "DRSC id": "DRSC06050", "mean viability with MMS": 3.59e6, "viability with MMS, replicate 1": 4.00e6}
{"predicted target": "Snp (Snipper)", "DRSC id": "DRSC04524", "mean viability with MMS": 3.53e6, "viability with MMS, replicate 1": 4.01e6}
{"predicted target": "Snp (Snipper)", "DRSC id": "DRSC21538", "mean viability with MMS": 3.40e6, "viability with MMS, replicate 1": 3.96e6}
{"predicted target": "CG34225", "DRSC id": "DRSC05270", "mean viability with MMS": 3.51e6, "viability with MMS, replicate 1": 4.01e6}
{"predicted target": "Clbn (Caliban)", "DRSC id": "DRSC14404", "mean viability with MMS": 3.46e6, "viability with MMS, replicate 1": 3.85e6}
{"predicted target": "RNaseZ (Ribonuclease Z)", "DRSC id": "DRSC06845", "mean viability with MMS": 3.51e6, "viability with MMS, replicate 1": 4.01e6}
{"predicted target": "CG2898", "DRSC id": "DRSC18238", "mean viability with MMS": 3.41e6, "viability with MMS, replicate 1": 3.87e6}
{"predicted target": "CG17806", "DRSC id": "DRSC15276", "mean viability with MMS": 3.75e6, "viability with MMS, replicate 1": 4.10e6}
{"predicted target": "sm (smooth)", "DRSC id": "DRSC05795", "mean viability with MMS": 3.51e6, "viability with MMS, replicate 1": 4.00e6}
{"predicted target": "sm (smooth)", "DRSC id": "DRSC07686", "mean viability with MMS": 3.66e6, "viability with MMS, replicate 1": 4.07e6}
{"predicted target": "SF2 (Splicing factor 2)", "DRSC id": "DRSC16845", "mean viability with MMS": 2.81e6, "viability with MMS, replicate 1": 3.53e6}
{"predicted target": "NKAIN (Na,K-ATPase Interacting)", "DRSC id": "DRSC04531", "mean viability with MMS": 3.52e6, "viability with MMS, replicate 1": 4.20e6}
{"predicted target": "NKAIN (Na,K-ATPase Interacting)", "DRSC id": "DRSC22470", "mean viability with MMS": 3.60e6, "viability with MMS, replicate 1": 4.10e6}
{"predicted target": "kune (kune-kune)", "DRSC id": "DRSC04860", "mean viability with MMS": 3.56e6, "viability with MMS, replicate 1": 4.09e6}
{"predicted target": "Gyc88E (Guanylyl cyclase at 88E)", "DRSC id": "DRSC15547", "mean viability with MMS": 3.42e6, "viability with MMS, replicate 1": 3.63e6}
{"predicted target": "CG31013", "DRSC id": "DRSC16542", "mean viability with MMS": 3.48e6, "viability with MMS, replicate 1": 3.88e6}
{"predicted target": "Rab4 + CG42239", "DRSC id": "DRSC05667", "mean viability with MMS": 3.50e6, "viability with MMS, replicate 1": 3.92e6}
{"predicted target": "E(Pc) (Enhancer of Polycomb)", "DRSC id": "DRSC05281", "mean viability with MMS": 3.11e6, "viability with MMS, replicate 1": 3.80e6}
{"predicted target": "E(Pc) (Enhancer of Polycomb)", "DRSC id": "DRSC07408", "mean viability with MMS": 3.05e6, "viability with MMS, replicate 1": 3.35e6}
{"predicted target": "Sec13 (Secretory 13)", "DRSC id": "DRSC14144", "mean viability with MMS": 3.36e6, "viability with MMS, replicate 1": 3.82e6}

Entries listed so far whose target name starts with M or m (2):
{"predicted target": "MED30 (Mediator complex subunit 30)", "DRSC id": "DRSC08516", "mean viability with MMS": 3.01e6, "viability with MMS, replicate 1": 3.61e6}
{"predicted target": "MED30 (Mediator complex subunit 30)", "DRSC id": "DRSC23135", "mean viability with MMS": 2.98e6, "viability with MMS, replicate 1": 3.32e6}
